The other results are listed elsewhere or left out.

By UniProt entry, the sequences of proteins in these tests, tags left out.
UniProt Q0JBA9, entry or part of it: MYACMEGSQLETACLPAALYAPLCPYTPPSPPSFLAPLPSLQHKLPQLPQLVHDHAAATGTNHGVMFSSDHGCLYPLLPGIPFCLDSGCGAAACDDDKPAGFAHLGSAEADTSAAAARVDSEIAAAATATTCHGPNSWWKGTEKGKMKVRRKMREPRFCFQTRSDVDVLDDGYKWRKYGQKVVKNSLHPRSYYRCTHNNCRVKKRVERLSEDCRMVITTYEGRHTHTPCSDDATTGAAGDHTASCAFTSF

The target of this assay is OsWRKY34 (Oryza sativa, UniProt Q0JBA9 1-250). The experiment in a line: protein-binding microarray (RPBM); PBS, 2% BSA, 51.3 ng/ul salmon testes DNA, 50 uM zinc acetate, 200 nM TF, 25 C, 1 h; high values mean tight binding. As to conditions: protein: recombinant; tags: N-terminal polyhistidine and DsRed monomer fusion (pET32a); label: CyDye5-dUTP incorporated in the synthesized complementary strand; 3' TTTTT single-stranded linker to array surface; dsDNA, one strand shown. Put shortly:
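Ni–NTA purification followed expression in E. coli BL21-CodonPlus of transcription factors fused N-terminally to a polyhistidine tag and DsRed. At 200 nM in PBS with 2% BSA, salmon testes DNA and 50 µM zinc acetate, the protein was incubated for 1 h at 25 °C with a custom Agilent array that had been primer-extended with Cy5-dUTP and blocked with 2% BSA. After washing, the array was read on an Axon 4000B scanner. The binding signal is per-feature fluorescence intensity in arbitrary units.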
Take “AGCACATATTCATCTCACGCTTCCTTCTCACTTCTTGTCCCGGAGTCACCTAGTGCAG”: the binding signal was 8740 fluorescence intensity (a.u.). With “ATCATTTTCTTGTACTCCATACGTCTCATAATATAATTTTCGGAGTCACCTAGTGCAG” the figure was 12400 fluorescence intensity (a.u.); with “ATGGCGTTTGGTGGTGGTCGACAATCTTTTCCGGTTTCTACGGAGTCACCTAGTGCAG”, 12700 fluorescence intensity (a.u.). For “AACGCATCGCCTTCCACGTCACCACGTCACTCCTTGCCCTCGGAGTCACCTAGTGCAG” the value was 8460 fluorescence intensity (a.u.); for “ATTTCTACAGTCCACTACCACCAGCACGACGTACTGCACCCGGAGTCACCTAGTGCAG”, 8360 fluorescence intensity (a.u.). For “GTAGTAGGGGAGGAGTGTATCTAGTAGTATAGGGAGGGAGCGGAGTCACCTAGTGCAG” the value was 13000 fluorescence intensity (a.u.).

Turning to “CACTTCTTTTCTCTATGGCGGCATCTGAATCTATGTGGATCGGAGTCACCTAGTGCAG”, the binding signal is 9450 fluorescence intensity (a.u.). For “TTTATTCACTTGCCACATCATTTTTCATCGTAGATGATAGCGGAGTCACCTAGTGCAG” the value was 8192 fluorescence intensity (a.u.); for “AATATGTTACACGTTTGTTTTGACACTTTCTCCGGCCTAACGGAGTCACCTAGTGCAG”, 12900 fluorescence intensity (a.u.); for “TTGGAGTCAATTTCCTTGCAAGCTACTCTTTACGTCGTTACGGAGTCACCTAGTGCAG”, 8240 fluorescence intensity (a.u.). For “ACAACGTTTACGTTTTTCTTTTGATGGTTTTAATATATGTCGGAGTCACCTAGTGCAG”, the binding signal is 10700 fluorescence intensity (a.u.).

For “TTCCTGAGATCAGGGATGAGTCGTTGACTCGATGTTTTTCCGGAGTCACCTAGTGCAG”, the binding signal was 8100 fluorescence intensity (a.u.). With “GAGCCGCCCGTCGTCTCTCACACCGCCGCCGCCCAACTCCCGGAGTCACCTAGTGCAG” the figure was 9010 fluorescence intensity (a.u.). With “GTTCGTTTGTCTCTTCCATTCCTGACGTGGCAAGCCTTCGCGGAGTCACCTAGTGCAG” the figure was 9090 fluorescence intensity (a.u.). For “CTGACACGGCCCATTTACTAGTCTCCAACCTCGTCGCCGCCGGAGTCACCTAGTGCAG” the value was 9830 fluorescence intensity (a.u.); for “TATAAGTCATTTGACTTTTTTCCTAGTCAAGTTTAACCAACGGAGTCACCTAGTGCAG”, 9380 fluorescence intensity (a.u.); for “TCAAACTTGATGTTATATCTGACTTACGGTCTTTGCTTCTCGGAGTCACCTAGTGCAG”, 8710 fluorescence intensity (a.u.). Regarding “GTTTTTCCTCTCTGCTTGTAACGCGTGATGTAAAATTTTCCGGAGTCACCTAGTGCAG”, the binding signal was 11000 fluorescence intensity (a.u.). For “TTAATTGCGCCTCCTCCGCTCGCTCCTCCGCCTCGTCTCGCGGAGTCACCTAGTGCAG” the value was 9680 fluorescence intensity (a.u.); for “AGATGACCTCTACTTAATGCTCGGTCGGAATCTTCAACTACGGAGTCACCTAGTGCAG”, 9620 fluorescence intensity (a.u.); for “CCATCACCCACCGCATCTCCGCTCCTCGACCGCGAGAGAGCGGAGTCACCTAGTGCAG”, 8920 fluorescence intensity (a.u.). For “GCTCGCCTCGCTTGCAGCTGCACCCAACCCAACCTCCTCGCGGAGTCACCTAGTGCAG” the value was 8500 fluorescence intensity (a.u.); for “CCCATATTATTCGTCTCCTTGCTTGCTTCTCTGAATATCACGGAGTCACCTAGTGCAG”, 8760 fluorescence intensity (a.u.); for “CACTTCACTTCACTTCGCCGTGCTCGCCATCATCGCCGCTCGGAGTCACCTAGTGCAG”, 14300 fluorescence intensity (a.u.). For “ATTTAAGGTAACTGGTTTCATATTCAAAGTTTGTTTACTACGGAGTCACCTAGTGCAG” the value was 8200 fluorescence intensity (a.u.); for “AAGCCGCGTTTTGTTTCTCGCGAAAGTGTTTGTTGATATGCGGAGTCACCTAGTGCAG”, 9390 fluorescence intensity (a.u.). As to “GTCGCGCGCGGCGATGCTCGTCAGCCGGATGCCCCGCCGGCGGAGTCACCTAGTGCAG”, the binding signal was 8370 fluorescence intensity (a.u.). With “TATGCGATACGATTAACTGGTTCTAGTCCTTGATTTTTCTCGGAGTCACCTAGTGCAG” the figure was 8620 fluorescence intensity (a.u.); with “TAAGTGCAGTTTTGCACTATTCACGTTCAACGTTTGACCGCGGAGTCACCTAGTGCAG”, 8940 fluorescence intensity (a.u.); with “TCATCATGTGACCGACCACCGCATCCTCAGTTGACCCAGTCGGAGTCACCTAGTGCAG”, 8640 fluorescence intensity (a.u.). With “CCCATCGCATCTTTCCCACTCGCCCCACGCCCGCACGTCTCGGAGTCACCTAGTGCAG” the figure was 18800 fluorescence intensity (a.u.); with “CATGCACTTAGTAATTTCTTGTATATGGTACCAGAATTTCCGGAGTCACCTAGTGCAG”, 8200 fluorescence intensity (a.u.). With “ATTGGCTGTTTCGTTTGCTATGTCATTGGCTTTCCCGCGCCGGAGTCACCTAGTGCAG” the figure was 8650 fluorescence intensity (a.u.). “GATATTGGATCGATCGCTGTACCTAGCGCACAAAAGTTATCGGAGTCACCTAGTGCAG”: the binding signal is 8240 fluorescence intensity (a.u.). For “CTGCTGCTGCTTCTGCTACTGCACTACTACTACACTCATACGGAGTCACCTAGTGCAG” the value was 8070 fluorescence intensity (a.u.); for “TATAATGGATTTTGAGTTTTTCTTGCACCGTTTTACCACTCGGAGTCACCTAGTGCAG”, 10600 fluorescence intensity (a.u.). With “ACCACTTCATCGCATTGTGCATGCTCCAATGGTACTTCTACGGAGTCACCTAGTGCAG” the figure was 11200 fluorescence intensity (a.u.); with “CTCCCAATCATCTTTTTCCGTTCCCTACTTCATGTTATTCCGGAGTCACCTAGTGCAG”, 10500 fluorescence intensity (a.u.); with “CTCGCCGCGCGATTCCGGCCCTACCCTGGCGCCCTGCGCCCGGAGTCACCTAGTGCAG”, 9910 fluorescence intensity (a.u.). “TCTTCCCACTCGCATCTCCTCACCTCCTTTCCTTCTTTAACGGAGTCACCTAGTGCAG”: the binding signal was 10700 fluorescence intensity (a.u.). With “TTTTCTCATTTATTCACTTGTCACATCATTTTTCATACTACGGAGTCACCTAGTGCAG” the figure was 9290 fluorescence intensity (a.u.); with “CCTTTGAATTTCTCTGTTCTATTTTCCTCGATTTCTTTCTCGGAGTCACCTAGTGCAG”, 9670 fluorescence intensity (a.u.).

These data come from paper PMC7819943, “Rice protein-binding microarrays: a tool to detect cis-acting elements near promoter regions in rice”.
